In PubChem BioAssay AID1439 (NMMLSC, 2008):
About 770 (0.35%) of roughly 220,000 compounds were called active. This list was built around the results that the source calls inconclusive (neither active nor inactive); the mix of calls is not that of the screen. Rule as the data show it: active = binding response below about 49% or above about 150%; inconclusive = no clear call, values can overlap the other calls; inactive = in between.

The chains behind the UniProt entries cited, without tags or fusion partners.
UniProt P09471, whole entry, looked up: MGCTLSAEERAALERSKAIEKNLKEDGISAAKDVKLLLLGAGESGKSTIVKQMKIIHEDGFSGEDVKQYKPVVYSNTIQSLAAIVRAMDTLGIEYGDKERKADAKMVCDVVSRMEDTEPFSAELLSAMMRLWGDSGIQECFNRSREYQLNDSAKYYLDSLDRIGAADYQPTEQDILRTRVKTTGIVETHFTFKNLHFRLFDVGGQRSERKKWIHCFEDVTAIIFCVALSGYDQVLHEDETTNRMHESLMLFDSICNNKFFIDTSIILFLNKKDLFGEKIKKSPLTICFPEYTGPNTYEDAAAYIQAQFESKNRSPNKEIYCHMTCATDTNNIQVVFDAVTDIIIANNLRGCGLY

target: Guanine nucleotide-binding protein G(o) subunit alpha (Homo sapiens) (UniProt P09471); test: RGS7-Galphao binding modulators, primary screen, biochemical, multiplexed bead flow cytometry (AID 1439); conditions: at 10 µM, actives lie on both sides;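 also: fluorescent Galphao held in activated GDP-AlF4 state binding bead-coupled RGS7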

SMILES	binding response (% of control)
COc1cc(C(=O)O)nc(OC)n1	inactive: 98.9%
CCCn1c(N)c(C(=O)CSc2nc3ccccc3c(=O)n2Cc2ccccc2)c(=O)[nH]c1=O	active: 158% [activator]
Cc1cc(C(=O)N/N=C/c2ccc([N+](=O)[O-])cc2)c2ccccc2n1	inconclusive: 133%
O=C1Nc2ccccc2Oc2cc([N+](=O)[O-])cc(Oc3ccccc3)c21	inactive: 102%
COc1ccc2cc(C(=O)C3CCCN(C(=O)c4cnccn4)C3)ccc2c1 (stereo not drawn)	inconclusive: 337%
CC(C)CCC(C(=O)O)C(C)CC(=O)Nc1ccn(-c2ccccc2)n1 (stereo not drawn)	inconclusive: 98.7%
C=CCn1c(O)c(N=NC(=O)OCC)c2ccccc21	inactive: 101%
CCN1C(=O)C(CC(=O)Nc2ccc(F)cc2)N(Cc2ccc3c(c2)OCO3)C1=S (stereo not drawn)	inconclusive: 94.7%
CN(C(=O)CCn1c(=S)oc2ccccc21)C1CCCCC1	inconclusive: 112%
COc1ccc(C(=O)NN(C)c2nc(C(F)(F)F)nc3ccccc23)cc1	inconclusive: 105%
COc1ccc(NC(=O)Nc2nnc(-c3cccs3)s2)cc1	inconclusive: 104%
COc1ccccc1/C=C/C(=O)c1c2c(c(C)[nH]c1=O)CCCC2	inactive: 103%
Fc1cccc(Cc2noc(CN3CCCCC3c3ccccn3)n2)c1 (stereo not drawn)	inactive: 106%
O=[N+]([O-])c1ccc(Sc2ccccn2)nc1	inconclusive: 164%
CCCN1C(=O)c2cc(C(=O)Nc3cccc(C(C)=O)c3)ccc2C1Nc1cccc(C(C)=O)c1 (stereo not drawn)	inconclusive: -280%
OCCC1CN(Cc2cccc(OC3CCCC3)c2)CCN1Cc1ccsc1 (stereo not drawn)	inactive: 102%
Cc1occc1C(=O)O/N=C(\N)c1ccccc1	inconclusive: 217%
COc1ccc(CCN=C(N)NS(=O)(=O)c2ccc(C)c(C)c2)cc1	inactive: 97.8%
O=c1cc(CSc2ccc(Cl)cc2)nc(-c2ccncc2)[nH]1	inactive: 98.4%
CC(C)C(C(=O)Nc1ccc(S(N)(=O)=O)cc1)N1C(=O)c2ccccc2C1=O (stereo not drawn)	inconclusive: 102%

SMILES	binding response (% of control)
CC1=CC(C)(C)N(C(=O)CNC2CCCC2)c2cc(C)ccc21	inactive: 105%
COc1ccc(OC)c(-n2c(-c3cccc(S(=O)(=O)N(C)C)c3)n[nH]c2=S)c1	inconclusive: 114%
Fc1ccc(COc2ccccc2CNc2nn[nH]n2)cc1	inconclusive: 111%
CC(=O)C(/C=N/c1ncc(C(F)(F)F)cc1Cl)=C(\C)O	inactive: 99.2%
O=C(CN1CCOCC1)N1CCN(c2ccc3ccccc3n2)CC1	inactive: 103%
CC(=O)[C@@]1(O)C(C)CC2C3C=C(C)C4=Cc5c(cnn5-c5ccccc5)C[C@]4(C)C3C(O)C[C@@]21C (stereo partly drawn)	inconclusive: 98%
COc1ccc(N(CC(=O)N/N=C/c2ccco2)S(=O)(=O)c2ccccc2)cc1Cl	inconclusive: 188%
CC(NC(=O)COC(=O)c1ccc(N(C)C)cc1)c1ccccc1 (stereo not drawn)	inconclusive: 115%
CC1=CC(C)(C)NC(=S)N1c1cccc2cc(S(=O)(=O)O)ccc12	inconclusive: -500%
O=C(COC(=O)c1ccc(NS(=O)(=O)c2cccs2)cc1O)NC1CCCCC1	inconclusive: 154%
CCc1ccc(-c2csc(NC(=O)COC(=O)CCc3nc4ccccc4s3)n2)cc1	inactive: 104%
O=C(Cn1cnc2cc([N+](=O)[O-])ccc2c1=O)NC(=O)NCc1ccccc1	inconclusive: 113%
CCc1nnc(NC(=O)COc2ccccc2[N+](=O)[O-])s1	inconclusive: 89.9%
O=C(COc1cccnc1[N+](=O)[O-])Nc1ccc2c(c1)OC(F)(F)O2	inactive: 102%
COc1ccc(C2c3ccc(O)cc3Oc3ncn(Cc4ccco4)c(=N)c32)cc1 (stereo not drawn)	inconclusive: 100%
CN(NC(=O)c1ccc(Cl)cc1)c1ncc(C(F)(F)F)cc1Cl	inconclusive: 62.2%
CCCc1cc(C(=O)Nc2cnn(Cc3ccc(F)cc3)c2)no1	inconclusive: 87.1%
Cn1c(=NC(=O)COc2ccccc2)sc2cc(F)cc(F)c21	inconclusive: 111%
O=C(CSc1ccc2c(c1)OCCO2)Nc1ccc(Br)cc1	inactive: 101%
Cc1ccc(N2CC(=O)N(NC(=O)CN3CCN(c4ccccc4)CC3)CC2=O)cc1	inconclusive: 534%

SMILES	binding response (% of control)
Cc1cc(N/N=C2/CCCc3ccccc32)nc2ccccc12	inconclusive: 98.7%
CCOC(=O)c1c(-c2ccc(C)cc2)csc1/N=C(\C)C1=C(O)c2ccccc2C1=O	inconclusive: 61%
Cc1ccc(C)c(NC(=S)N(C2CCCCC2)C(C)c2cccnc2)c1 (stereo not drawn)	inconclusive: 88%
COc1ccc(CCNCc2csc3nc4ccccc4n23)cc1OC	inactive: 98.5%
O=C(c1ccco1)c1cn(CC(=O)N2CCCCCC2)c2ccccc12	inconclusive: 93.9%
CCC(C)c1ccc(OCc2ccc(C(=O)OC)o2)cc1 (stereo not drawn)	inconclusive: 98.3%
CN(C)c1ccc(/C=N/NC(=O)COc2ccccc2)cc1	inconclusive: 119%
Nn1cc(-c2ccccc2)nc1SCC(=O)NCCc1ccccc1	inconclusive: 101%
COc1ccc2c(/C=N/NS(=O)(=O)c3ccc(C)cc3)c[nH]c2c1	inconclusive: 76.7%
O=C(CSc1ncnc2nc[nH]c12)c1ccc([N+](=O)[O-])cc1	inconclusive: 175%
CCc1ccccc1NC(=O)CSc1nnc(CCNC(=O)OC(C)(C)C)o1	inconclusive: 85.4%
O=C(c1ccccc1)N1CCN(S(=O)(=O)c2ccccc2)CC1	inconclusive: 111%
CN1/C(=C/C=C(C#N)C#N)C=Cc2ccccc21	inconclusive: 126%
CC#CC(=O)N1CCC(CO)(CCc2ccccc2)CC1	inactive: 112%
COc1cc(/C=C/C(=O)OCC(=O)Nc2ccc(C)cc2[N+](=O)[O-])ccc1O	inconclusive: 83.3%
CCOC(=O)CC(=O)Nc1ccn[nH]1	inconclusive: 76%
CCOC(=O)c1nc2ccccc2c(C)c1C	inconclusive: 103%
CCc1ccc(C(=O)CN2C(=O)NC(C)(CCc3ccccc3)C2=O)cc1 (stereo not drawn)	inactive: 97.2%

Some of the entries so far, in markdown:

| SMILES | binding response (% of control) |
| --- | --- |
| CC1=CC(C)(C)N(C(=O)CNC2CCCC2)c2cc(C)ccc21 | inactive: 105% |
| COc1ccc(OC)c(-n2c(-c3cccc(S(=O)(=O)N(C)C)c3)n[nH]c2=S)c1 | inconclusive: 114% |
| Fc1ccc(COc2ccccc2CNc2nn[nH]n2)cc1 | inconclusive: 111% |
